Results as given in PubChem BioAssay AID540275 (National Center for Advancing Translational Sciences (NCATS), 2011).
Among all 320,000 compounds or so, about 620 (0.19%) were called active. Inconclusive means that the source gave no clear call. Such entries were picked first, then a sample of the others. No stated cut-off is given here; in the data, active means activation above about 80%; inconclusive means between about 30% and that limit; inactive means weaker than that.

Chains of the proteins cited; added tags and fusions are not shown.
UniProt Q8NER1, whole entry, looked up: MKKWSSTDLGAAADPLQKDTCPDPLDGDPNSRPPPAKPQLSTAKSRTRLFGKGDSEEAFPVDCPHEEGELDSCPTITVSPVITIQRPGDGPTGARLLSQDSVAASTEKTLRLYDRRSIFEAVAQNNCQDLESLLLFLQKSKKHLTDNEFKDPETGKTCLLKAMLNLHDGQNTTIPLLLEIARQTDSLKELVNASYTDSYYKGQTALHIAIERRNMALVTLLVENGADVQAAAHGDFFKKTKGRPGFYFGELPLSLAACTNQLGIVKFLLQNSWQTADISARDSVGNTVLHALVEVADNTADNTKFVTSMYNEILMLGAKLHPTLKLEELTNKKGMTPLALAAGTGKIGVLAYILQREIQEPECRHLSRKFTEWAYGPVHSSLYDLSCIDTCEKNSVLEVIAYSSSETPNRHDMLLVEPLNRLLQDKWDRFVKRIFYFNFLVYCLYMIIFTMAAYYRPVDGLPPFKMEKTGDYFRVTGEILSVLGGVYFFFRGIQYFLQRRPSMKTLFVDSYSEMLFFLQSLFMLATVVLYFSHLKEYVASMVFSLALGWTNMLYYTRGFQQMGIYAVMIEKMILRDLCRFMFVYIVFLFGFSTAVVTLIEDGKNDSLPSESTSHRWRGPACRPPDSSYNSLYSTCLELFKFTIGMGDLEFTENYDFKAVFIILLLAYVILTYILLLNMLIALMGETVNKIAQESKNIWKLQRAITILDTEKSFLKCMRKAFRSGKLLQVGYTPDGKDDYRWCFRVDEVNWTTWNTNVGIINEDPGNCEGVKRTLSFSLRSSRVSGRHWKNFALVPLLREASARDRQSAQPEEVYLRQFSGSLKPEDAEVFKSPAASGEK

molecular target: Transient receptor potential cation channel subfamily V member 1 (Homo sapiens) (UniProt Q8NER1); assay: HTS Assay for Compounds that Act as Agonists of the Vanilloid Receptor 1; settings: TRPV1-expressing cells, Fluo-8 calcium influx, agonist mode; at 8.33 µM, active compounds read high; further: 0% is about no effect
How it was run: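 Fluo-8 calcium influx in TRPV1-expressing cells, kinetic read (ex 480/em 520 nm). Compound added and read 3 min for agonist activity, followed by capsaicin at EC20 final and 2 min further read for enhancement.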

Row | SMILES | activation
1 | COc1ccc(Br)cc1CNC(=O)C1CCCN(S(=O)(=O)N2CC(C)CC(C)C2)C1 (configuration not stated) | inactive: 1.5%
2 | CCC(Oc1ccccc1)C(=O)Nc1ccccc1N1CCCCC1 (configuration not stated) | inconclusive: 34.7%
3 | COc1ccccc1NC(=O)C(NC(=O)OC(C)(C)C)C(C)OCc1ccccc1 (configuration not stated) | inconclusive: 39.5%
4 | OC(COC(c1ccc(Cl)cc1)c1ccc(Cl)cc1)CN1CCCC1 (configuration not stated) | inactive: 2.46%
5 | Cc1ccc(NC(=O)c2ccc(-n3cccn3)c([N+](=O)[O-])c2)cc1 | inconclusive: 31.6%
6 | Cc1ccccc1OC(C)C(=O)Nc1ccc2c(c1)OCCO2 (configuration not stated) | inconclusive: 52%
7 | COc1ccc2nc(NC(=O)c3ccoc3C)sc2c1 | inconclusive: 42.2%
8 | COc1ccc(C2=NN(c3nc(-c4ccc(CNC(C)=O)cc4)cs3)C(c3ccco3)C2)cc1 (configuration not stated) | inconclusive: 61.7%
9 | O=[N+]([O-])c1ccc2nc(-c3ccccc3[N+](=O)[O-])[nH]c2c1 | inactive: 28.2%
10 | Cn1nc(C(F)(F)F)cc1C(=O)Nc1ccc(-c2ccno2)cc1 | inconclusive: 55.2%
11 | COc1ccc(SC[C@H](C)CN2CC[C@H](C)CCC2=O)cc1 | inconclusive: 30.2%
12 | NC1=NC(=O)/C(=C/c2ccccc2OS(=O)(=O)c2ccccc2)S1 | inactive: 5.78%
13 | CCn1c(CN2CCN(Cc3ccc(C)cc3)C(CCO)C2)nc2ccccc21 (configuration not stated) | inactive: 5.08%
14 | Cc1nc(Nc2ccc3c(c2)OCCO3)c2c(C)c(C)sc2n1 | inconclusive: 62.5%
15 | COc1ccc(NC(=O)c2cc3ccccn3n2)cc1 | inconclusive: 67.9%
16 | CCN(CC)c1ccc(/C=C2\C(=O)c3ccc(C(=O)O)cc3C2=O)cc1 | inconclusive: 74.2%
17 | O=C(C1CCCCC1)N1CCCC(c2nc3c(nnn3Cc3ccccc3)c(=O)[nH]2)C1 (configuration not stated) | inconclusive: 33.2%
18 | Cc1ccc(NC(=O)c2ccccc2F)cc1S(=O)(=O)N1CCCCCC1 | inconclusive: 31.5%
19 | COc1cc(/C=N\NC(=O)c2ccc(-c3ccccc3)cc2)cc(Br)c1O | inconclusive: 73.5%
20 | CCCc1ccc2oc(C(=O)NCCc3cnn(C)c3)c(C)c2c1 | inconclusive: 36.6%
21 | O=C(Cc1csc(Nc2nc(=S)[nH]c3ccccc23)n1)N1CCN(c2cccc(C(F)(F)F)c2)CC1 | inactive: 2.14%
22 | Cn1cc(CNC(=O)c2cc(-c3ccc(Br)cc3)nc3ccccc23)cn1 | inconclusive: 73.5%

Row | SMILES | activation
23 | Cc1cc(C)c(S(=O)(=O)Nc2ccccc2C(=O)N2CCCC2)c(C)c1 | inactive: 16.3%
24 | CC(=O)Nc1ccc(CN2CCc3c([nH]c4ccccc34)C2c2ccccn2)cc1 (configuration not stated) | inconclusive: 39%
25 | CCOC(=O)/C(=C\C=C1/Sc2cc(OCC)c(OCC)cc2N1CC)C(C)=O | inconclusive: 74.5%
26 | O=C(Nc1cccc(O)c1)C1CC(c2ccc(Cl)cc2)=NO1 (configuration not stated) | inconclusive: 42.9%
27 | CC(C)c1ccc(NC2=NCC(=O)N2Cc2cccs2)cc1 | inconclusive: 39%
28 | COc1ccc(/C=C(/CC(=O)Nc2ccc(C)cc2)c2nc3ccccc3s2)cc1 | inconclusive: 60.3%
29 | Cc1ccc(C(=O)Nc2ccc(C(=O)N/N=C/c3c[nH]c4ccccc34)cc2)cc1 | inconclusive: 40.8%
30 | Cc1nc2c(-c3ccc(F)cc3)c(C)nn2c(C)c1CCC(=O)NCc1ccco1 | inconclusive: 61.8%
31 | O=C(OCC(=O)N1CCN(Cc2ccccc2)CC1)c1cc(Cl)ccc1[N+](=O)[O-] | inconclusive: 36.6%
32 | CN(c1ccc(C(=O)Nc2ccccn2)cc1)S(=O)(=O)c1ccccc1 | inconclusive: 30.2%
33 | COc1ccc(CCNC(=O)CNC(=O)c2ccccc2Br)cc1OC | inactive: 1.67%
34 | Cc1ccc(NC(=O)c2ccc(NC(=O)c3ccccc3)cc2)cc1C | inconclusive: 46.1%
35 | Cc1ccccc1C1CCCN(C(=O)c2cc(COc3c(F)cccc3F)on2)C1 (configuration not stated) | inconclusive: 47.2%
36 | CCOC(=O)CSc1nc2cc(C(=O)NCC3CCCO3)ccc2c(=O)n1Cc1ccco1 (configuration not stated) | inconclusive: 33.4%
37 | CCOc1cccc(N(C(=O)Cc2cccs2)C(C(=O)NC2CCCCC2)c2cccn2C)c1 (configuration not stated) | inconclusive: 39.7%
38 | Cc1ccc(NC(=O)CN2C(=O)NC3(CCCCCC3)C2=O)cc1Cl | inconclusive: 34.9%
39 | Cc1onc(-c2ccccc2)c1C(=O)Nc1ccccc1NC(=O)c1c(-c2ccccc2)noc1C | inconclusive: 67.2%
40 | Cc1ccc(NC(=O)c2cnc(N3CCN(c4ccccn4)CC3)c3ccccc23)c(Br)c1 | inconclusive: 52.6%
41 | CCCNC(=O)c1sc2c(c1C(=O)Nc1ccccn1)CCCC2 | inconclusive: 57.9%
42 | COc1ccc(CCNC(=O)COc2cc(O)c3c(c2)OC(C)(C)CC3=O)cc1OC | inconclusive: 42.2%
43 | COc1ccc(/C(C)=N/NC(=O)c2nnn(-c3nonc3N)c2-c2cccs2)cc1OC | inactive: -1.81%
44 | CCCOc1ccc(-c2nn(-c3ccccc3)cc2/C=C2\SC(N)=NC2=O)cc1C | inconclusive: 37.1%

Row | SMILES | activation
45 | Cc1ccc2[nH]c(C(=O)N3CCCC(Nc4ccc(F)cc4)C3)cc2c1 (configuration not stated) | inconclusive: 39%
46 | CCCC(=O)Nc1ccccc1N1CCN(C(=O)C(C)C)CC1 | inactive: -2.02%
47 | COc1cc(-n2nnnc2SCC(=O)N2CCN(c3ccc(F)cc3)CC2)c(OC)cc1Cl | inconclusive: 38.2%
48 | O=C(CCCN1C(=O)/C(=C/c2ccccc2)SC1=S)Nc1cccc(O)c1 | inconclusive: 33.3%
49 | COc1ccc(NC(=O)CC2C(=O)N(C)C(=S)N2CCc2ccc(F)cc2)cc1 (configuration not stated) | inactive: 1.96%
50 | CN(CC(=O)Nc1ccccc1C(F)(F)F)C(=O)c1cc2c(s1)CCCCC2 | inactive: -1.65%
51 | C/C(=N/NC(=O)c1ccc(O)cc1)c1cccc([N+](=O)[O-])c1 | inconclusive: 41.1%
52 | Cc1ccc(NC(=O)c2csc(-c3ccccc3)c2C)cc1 | inactive: -3.26%
53 | CCc1c(C(=O)NCCc2cccc(C)c2)[nH]c(C)c1C(C)=O | inconclusive: 30.5%
54 | O=C(Nc1cccc2ccccc12)c1ccccc1 | inconclusive: 45.7%
55 | Cc1cccc(C(=O)Oc2ccc(/C=N/O)cc2)c1 | inactive: 21.3%
56 | Cc1ccc(C(=O)Nc2nc(COc3ccccc3)cs2)s1 | inconclusive: 59.3%
57 | O=C1CCCCC1Sc1nnc(Nc2ccccc2)s1 (configuration not stated) | inconclusive: 33.2%
58 | CCN(Cc1ccc2c(c1)OCO2)C(=O)/C=C/c1cccc(Br)c1 | inconclusive: 46.7%
59 | Cc1cc(Nc2cccc(Cl)c2Cl)n2ncnc2n1 | inactive: 2.33%
60 | Cc1ccc(-c2c(C(=O)N/N=C/c3ccncc3)nnn2-c2nonc2N)cc1 | inconclusive: 34.1%
61 | Cc1cccc(N2CCN(C3=NC(=O)/C(=C\c4cn[nH]c4-c4ccccc4)S3)CC2)c1 | inconclusive: 52.9%
62 | CC1CC(C)CN(c2cc(=O)n(Cc3ccc(F)cc3)c(=O)[nH]2)C1 (configuration not stated) | inconclusive: 61.1%
63 | COc1ccccc1C(=O)NC(=S)Nc1ccc2[nH]c(=O)[nH]c2c1 | inconclusive: 38.8%
64 | O=C(C[n+]1ccc(C(=O)N/N=C/c2ccc(Br)cc2)cc1)c1ccccc1 | inconclusive: 32.4%
65 | Cc1ccc(NC(=O)c2ccc(OC(=O)CCN3C(=O)c4ccccc4C3=O)cc2)cc1 | inconclusive: 54.9%
66 | CCOc1ccc(C2=NNC(c3cccs3)=Nc3ccc(OC)cc32)cc1 | inconclusive: 49%

3 compounds out of the list, arranged by SMILES length, falling.
Row | SMILES | activation
64 | O=C(C[n+]1ccc(C(=O)N/N=C/c2ccc(Br)cc2)cc1)c1ccccc1 | inconclusive: 32.4%
45 | Cc1ccc2[nH]c(C(=O)N3CCCC(Nc4ccc(F)cc4)C3)cc2c1 (configuration not stated) | inconclusive: 39%
52 | Cc1ccc(NC(=O)c2csc(-c3ccccc3)c2C)cc1 | inactive: -3.26%

(listing goes on)

Row | SMILES | activation
67 | COc1cccc(N2CCN(C(=O)CN(C)S(=O)(=O)c3ccc4c(c3)CCC(=O)N4)CC2)c1 | inconclusive: 35.8%
68 | CSc1nccc(NC(=O)c2ccc(C(C)(C)C)cc2)n1 | inconclusive: 59.4%
69 | CCCCNC(=O)c1cc2c(C)cc(C)cc2[nH]1 | inconclusive: 35.5%
70 | COc1cccc(/C=N/N2CCN(c3ccccc3OC)CC2)c1 | inactive: 7.18%
71 | CSc1ccc(Cl)c(C(=O)NCCOc2cc(C)ccc2C(C)C)c1 | inconclusive: 45%
72 | COC(=O)c1sccc1NC(=O)COc1ccccc1Cl | inconclusive: 33.8%
73 | COc1ccccc1N1CCN(C(=O)Nc2ccc([N+](=O)[O-])cc2)CC1 | inconclusive: 47.9%
74 | O=C(O)CN1C(=O)/C(=C\c2cn(CC(=O)N3CCOCC3)c3ccccc23)SC1=S | inactive: 3.74%
75 | CC1Oc2ccccc2C=C1/C=N\NC(=O)c1cccnc1 (configuration not stated) | inconclusive: 35.4%
76 | CC(C)(C)c1ccc(CNc2cc(N3CCOCC3)ccc2[N+](=O)[O-])cc1 | inconclusive: 36.6%
77 | Cc1ccc2nc(NC(=O)CSCc3ccccc3)sc2c1 | inconclusive: 45.9%
78 | Cc1cc2c(=O)n(Cc3ccco3)c(SCC(=O)c3ccc(Cl)s3)nc2s1 | inactive: 6.53%
79 | CC(C)(C)c1cc(C(=O)NC2CC2)n(Cc2ccc(F)cc2)n1 | inconclusive: 59.8%
80 | COC(=O)c1ccc(Oc2nc(Nc3ccc(F)cc3)nc(N3CCCC3)n2)cc1 | inconclusive: 46.4%
81 | COc1ccccc1Oc1ccc(NC(=O)c2ccc(Cl)cc2)cc1 | inconclusive: 50.7%
82 | CS(=O)(=O)N1CCc2cc(C(=O)Nc3ccccc3Br)ccc21 | inconclusive: 46.6%
83 | Cc1c(Cl)cccc1NC(=S)NCCc1ccc(F)cc1 | inactive: 24.7%
84 | Cc1ccccc1SC1CCN(Cc2nc(C3CC3)no2)CC1 | inconclusive: 37.6%
85 | CC1(C)C2CC=C(/C=N/NC(=S)NCCc3ccccc3)C1C2 (configuration not stated) | inconclusive: 42.3%
86 | CC(=O)Nc1ccc(NC(=O)C2CCC(N3C(=O)C4C5C=CC(C6CC56)C4C3=O)CC2)cc1 (configuration not stated) | inconclusive: 71.7%
87 | Cc1ccc(CNC(=O)C2CC(c3cc(C(F)(F)F)cc(C(F)(F)F)c3)=NO2)o1 (configuration not stated) | inconclusive: 30.9%
